## Library screen at single concentrations

By UniProt entry, the sequences of proteins in these tests, tags left out. Residues count along the entry.
UniProt P9WPC5, whole entry: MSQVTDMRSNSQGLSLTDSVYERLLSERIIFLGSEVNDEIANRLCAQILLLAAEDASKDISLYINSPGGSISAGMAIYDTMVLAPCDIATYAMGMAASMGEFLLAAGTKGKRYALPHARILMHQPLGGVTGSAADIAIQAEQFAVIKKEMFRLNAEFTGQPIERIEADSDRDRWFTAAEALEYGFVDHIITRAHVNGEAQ
UniProt P9WPC3, whole entry partner: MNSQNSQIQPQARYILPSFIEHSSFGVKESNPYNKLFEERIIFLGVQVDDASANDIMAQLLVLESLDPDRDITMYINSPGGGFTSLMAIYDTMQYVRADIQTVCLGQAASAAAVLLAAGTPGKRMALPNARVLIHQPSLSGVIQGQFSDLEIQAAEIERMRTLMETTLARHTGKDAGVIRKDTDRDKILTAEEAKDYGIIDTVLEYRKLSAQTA
UniProt I6X8D2, whole entry: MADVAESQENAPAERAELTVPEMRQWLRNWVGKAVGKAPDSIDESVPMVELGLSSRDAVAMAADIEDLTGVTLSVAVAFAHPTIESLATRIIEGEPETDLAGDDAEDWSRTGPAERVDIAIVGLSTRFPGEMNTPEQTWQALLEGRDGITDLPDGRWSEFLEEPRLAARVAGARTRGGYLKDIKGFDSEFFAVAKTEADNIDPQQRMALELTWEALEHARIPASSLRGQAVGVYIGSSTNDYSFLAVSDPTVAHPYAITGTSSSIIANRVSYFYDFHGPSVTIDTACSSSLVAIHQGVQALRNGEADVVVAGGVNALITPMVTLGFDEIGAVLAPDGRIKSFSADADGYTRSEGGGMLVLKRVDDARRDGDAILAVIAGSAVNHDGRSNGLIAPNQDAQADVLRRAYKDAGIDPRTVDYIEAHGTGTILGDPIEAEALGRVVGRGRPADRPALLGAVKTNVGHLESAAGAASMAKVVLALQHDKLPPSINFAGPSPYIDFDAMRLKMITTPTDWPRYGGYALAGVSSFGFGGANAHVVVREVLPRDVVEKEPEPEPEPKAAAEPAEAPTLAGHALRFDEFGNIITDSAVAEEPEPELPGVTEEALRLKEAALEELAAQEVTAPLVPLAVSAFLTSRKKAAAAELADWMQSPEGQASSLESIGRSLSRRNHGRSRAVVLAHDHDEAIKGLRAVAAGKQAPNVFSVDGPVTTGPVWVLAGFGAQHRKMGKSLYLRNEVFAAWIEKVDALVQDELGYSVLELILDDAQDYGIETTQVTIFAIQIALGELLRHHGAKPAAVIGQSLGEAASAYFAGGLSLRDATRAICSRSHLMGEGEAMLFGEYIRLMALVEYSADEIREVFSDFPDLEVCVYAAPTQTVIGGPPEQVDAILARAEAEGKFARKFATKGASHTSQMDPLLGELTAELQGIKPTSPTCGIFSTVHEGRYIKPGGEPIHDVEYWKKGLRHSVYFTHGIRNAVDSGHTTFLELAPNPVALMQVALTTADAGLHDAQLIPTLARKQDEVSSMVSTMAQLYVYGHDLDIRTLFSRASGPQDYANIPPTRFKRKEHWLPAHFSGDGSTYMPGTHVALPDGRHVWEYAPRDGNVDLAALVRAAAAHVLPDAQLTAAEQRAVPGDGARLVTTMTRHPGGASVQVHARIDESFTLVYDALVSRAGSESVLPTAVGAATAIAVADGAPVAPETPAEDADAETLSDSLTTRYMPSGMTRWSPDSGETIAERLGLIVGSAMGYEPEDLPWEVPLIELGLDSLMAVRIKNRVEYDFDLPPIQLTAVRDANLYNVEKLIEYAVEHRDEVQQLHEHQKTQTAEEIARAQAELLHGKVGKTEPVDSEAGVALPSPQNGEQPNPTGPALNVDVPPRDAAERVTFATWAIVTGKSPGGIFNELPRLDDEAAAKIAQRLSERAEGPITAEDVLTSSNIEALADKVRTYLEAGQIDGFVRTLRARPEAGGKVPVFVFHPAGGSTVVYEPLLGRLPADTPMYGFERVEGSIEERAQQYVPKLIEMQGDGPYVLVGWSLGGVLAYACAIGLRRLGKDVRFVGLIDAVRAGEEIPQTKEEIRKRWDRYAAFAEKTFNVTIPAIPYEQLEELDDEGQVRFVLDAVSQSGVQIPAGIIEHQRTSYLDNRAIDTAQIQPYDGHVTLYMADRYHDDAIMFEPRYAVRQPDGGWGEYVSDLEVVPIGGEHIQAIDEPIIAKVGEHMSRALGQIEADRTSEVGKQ
UniProt Q8IDJ8, 1-583: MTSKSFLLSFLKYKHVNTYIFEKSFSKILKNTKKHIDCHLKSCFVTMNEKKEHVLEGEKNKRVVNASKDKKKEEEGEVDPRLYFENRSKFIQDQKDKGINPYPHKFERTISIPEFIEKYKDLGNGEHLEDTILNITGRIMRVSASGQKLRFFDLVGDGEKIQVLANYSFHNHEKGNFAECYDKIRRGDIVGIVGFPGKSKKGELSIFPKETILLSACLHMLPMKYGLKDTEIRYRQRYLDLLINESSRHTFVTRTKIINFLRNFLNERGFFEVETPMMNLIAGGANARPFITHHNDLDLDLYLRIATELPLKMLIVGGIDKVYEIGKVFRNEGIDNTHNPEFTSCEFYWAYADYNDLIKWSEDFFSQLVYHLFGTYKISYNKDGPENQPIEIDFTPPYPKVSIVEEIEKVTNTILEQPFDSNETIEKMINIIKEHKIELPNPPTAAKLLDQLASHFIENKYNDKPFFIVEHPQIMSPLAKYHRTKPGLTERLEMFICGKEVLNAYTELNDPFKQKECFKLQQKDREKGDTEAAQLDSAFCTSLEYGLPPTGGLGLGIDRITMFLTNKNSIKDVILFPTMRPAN

Measurements from “University of Dundee, Small-Polar-MMV Screening Library” (2021), ChEMBL document CHEMBL3988442.

A: 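ClpP1P2, Mycobacterium tuberculosis (UniProt P9WPC5 and UniProt P9WPC3). Protease assay of ClpP1P2, read by the AMC dye that it sets free. Tested at 50 µM. Direction is inferred from only a few compounds that gave an IC50; most scored high, so higher reads as stronger inhibition. Most other retested compounds had strongly negative values. Size under these conditions: about 69,000 compounds, about 10 of them at 50% or above in at least one test.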
B: 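Cell assay of Leishmania donovani living inside macrophages; the read-out is not stated. Tested at 30 µM. Higher reads as stronger inhibition (inferred: compounds with an IC50 in retests scored well above the rest). Size under these conditions: about 69,000 compounds, about 1,000 of them at 50% or above in at least one test.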
C: 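Enzyme assay of the thioesterase domain of polyketide synthase 13; the read-out is not stated. Target: Polyketide synthase Pks13, Mycobacterium tuberculosis (UniProt I6X8D2). Compounds at 30 µM. Higher reads as stronger inhibition (inferred from which compounds were picked for retests). Size under these conditions: about 67,000 compounds, about 300 of them at 50% or above in at least one test.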
D: 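Enzyme assay of the cytosolic lysyl-tRNA synthetase in 384-well plates, read by luminescence. Target: Lysine-tRNA ligase, Plasmodium falciparum 3D7 (UniProt Q8IDJ8). Concentration: 30 µM. Higher reads as stronger inhibition, judged from the few compounds that gave an IC50. Of about 69,000 compounds tested this way, about 49 (0.071%) reached 50% or more in at least one test.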
E: 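Assay of Toxoplasma gondii numbers, read through their beta-galactosidase reporter with a colour substrate. Concentration: 10 µM. The record gives no direction; the compounds picked for IC50 retests had high values, so higher reads as fewer parasites. Size under these conditions: about 67,000 compounds, about 260 of them at 50% or above in at least one test.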

The filed quantity is “Percent Effect” (%).
The controls that fix the scale are not given in the record; negative values are as filed.
Compounds were drawn at random from those tested, without regard to their results.

Result for CN1CCN(CCc2ncnn2-c2ccc3c(c2)OCO3)CC1 was A: -0.06945%; B: 1.385%; C: -25.32%; D: 4.986%; E: 0.8999%. CN(CC(=O)N(C)C1CCCCC1)Cc1nc2ccccc2c(=O)[nH]1 read A: -14.45%; B: 4.758%; C: -7.475%; D: 4.957%; E: 8.17%. With O=C(NCCCN1CCOCC1)C1CCCN(Cc2ccco2)C1 (centres unmarked) the screen gave A: -14.29%; B: 4.734%; C: -11.07%; D: 2.892%; E: 0.9377%. Result for O=S(=O)(CCCN1CCCC1Cn1cncn1)c1ccccc1 (centres unmarked) was A: 9.283%; B: 14.46%; C: -8.968%; D: 3.77%; E: -3.115%. With CSc1nnc(C2CCN(C(=O)N3CCOCC3)CC2)n1C(C)C the screen gave A: -12.86%; B: -0.8838%; C: -9.993%; D: -0.6407%; E: 4.885%. With CC(=O)Nc1cccc2c1ccn2CC(=O)Nc1nc[nH]n1 the screen gave A: -8.535%; B: -12.83%; C: -2.253%; D: 1.133%; E: 7.662%. Result for COc1cc(F)ccc1C(C(=O)O)N(C)CCN1CCOCC1 (centres unmarked) was A: 1.23%; B: 34.85%; C: -13.54%; D: 5.863%; E: -5.423%.

O=C1CC(c2ccncc2)C2(CCN(C(=O)c3ccc[nH]3)CC2)N1 (centres unmarked) read A: 9.679%; C: -32.86%; D: 3.504%. With CCc1nn(C)c2[nH]nc(NC(=O)c3cccnc3NC(C)C)c12 the screen gave A: -11.97%; B: -8.359%; C: 11.69%; D: 1.972%; E: -2.267%. Result for Cc1nc(CO[C@@H]2CN(Cc3nccs3)[C@@H]3COC[C@@H]32)cs1 was A: -15.33%; C: -6.068%; D: 5.466%. For CSc1c[nH]nc1NS(=O)(=O)c1cc(F)ccc1C the result was A: -11.12%; B: 13.17%; C: -31.64%; D: 3.544%; E: -1.725%. Result for CC(=O)NCC1CCN(c2cc(C)nc(-c3ccncc3)n2)CC1 was A: -7.92%; B: 23.59%; C: -10.85%; D: 0.8173%; E: 5.109%. For CC(C)CC(O)C1CCN(C(=O)c2ccc(C(C)C)[nH]c2=O)CC1 (centres unmarked) the result was A: -8.556%; B: 15.19%; C: 10.74%; D: -3.356%. Result for Cl.Cn1cc([C@@H]2CN(S(=O)(=O)c3ccccc3F)C[C@H]2N)c2ccncc21 was B: -27.38%; E: 19.61%.

For reference, 2 entries once more:

* CCc1nn(C)c2[nH]nc(NC(=O)c3cccnc3NC(C)C)c12 | A: -11.97%; B: -8.359%; C: 11.69%; D: 1.972%; E: -2.267%
* Cl.Cn1cc([C@@H]2CN(S(=O)(=O)c3ccccc3F)C[C@H]2N)c2ccncc21 | B: -27.38%; E: 19.61%